Residue numbers refer to the chain shown, from its start. For at least one entry, the source does not settle the construct or the ends of the probe. At least one verdict rests on a figure or table, not on a statement of the authors. For some of these results: Where a protein sequence is shown, tags need not be part of it.
Columns and labels:
Siz2∆CT R72A = molecular target: T1, Siz2∆CT R72A (UniProt Q12216); assay: fluorescence polarization; settings: FP: 20 mM HEPES pH 7.5, 125 mM NaCl, 0.1% Tween-20, 23°C, 50 nM DNA (RPA/SUMO-RPA on ss32: 1 nM DNA, plus 5 mM MgCl2, 1 mM DTT); recombinant protein; residues 1-420; protein details: His6-thioredoxin removed with TEV; label: 5' 6-FAM on strand 1
T1 sequence (looked up): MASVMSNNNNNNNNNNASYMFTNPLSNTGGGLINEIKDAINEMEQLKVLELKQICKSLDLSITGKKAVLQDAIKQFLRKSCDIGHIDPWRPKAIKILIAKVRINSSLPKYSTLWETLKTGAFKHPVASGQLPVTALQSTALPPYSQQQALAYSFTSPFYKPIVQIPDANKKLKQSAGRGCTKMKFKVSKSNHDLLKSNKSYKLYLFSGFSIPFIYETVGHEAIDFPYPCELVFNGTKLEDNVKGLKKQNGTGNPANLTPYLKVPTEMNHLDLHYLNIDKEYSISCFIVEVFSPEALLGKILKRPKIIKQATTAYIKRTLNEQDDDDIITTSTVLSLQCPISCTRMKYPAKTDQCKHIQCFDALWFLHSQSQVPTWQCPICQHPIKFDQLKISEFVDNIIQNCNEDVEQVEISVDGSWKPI

Siz2∆CT K109E = molecular target: T2, Siz2∆CT K109E (UniProt Q12216); assay: fluorescence polarization; settings: FP: 20 mM HEPES pH 7.5, 125 mM NaCl, 0.1% Tween-20, 23°C, 50 nM DNA (RPA/SUMO-RPA on ss32: 1 nM DNA, plus 5 mM MgCl2, 1 mM DTT); recombinant protein; residues 1-420; protein details: His6-thioredoxin removed with TEV; label: 5' 6-FAM on strand 1
T2 sequence (looked up): T1 sequence (looked up) with A72R, K109E

Siz2∆CT R78E = molecular target: T3, Siz2∆CT R78E (UniProt Q12216); assay: fluorescence polarization; settings: FP: 20 mM HEPES pH 7.5, 125 mM NaCl, 0.1% Tween-20, 23°C, 50 nM DNA (RPA/SUMO-RPA on ss32: 1 nM DNA, plus 5 mM MgCl2, 1 mM DTT); recombinant protein; residues 1-420; protein details: His6-thioredoxin removed with TEV; label: 5' 6-FAM on strand 1
T3 sequence (looked up): T1 sequence (looked up) with A72R, R78E

Siz2∆CT K92A = molecular target: T4, Siz2∆CT K92A (UniProt Q12216); assay: fluorescence polarization; settings: FP: 20 mM HEPES pH 7.5, 125 mM NaCl, 0.1% Tween-20, 23°C, 50 nM DNA (RPA/SUMO-RPA on ss32: 1 nM DNA, plus 5 mM MgCl2, 1 mM DTT); recombinant protein; residues 1-420; protein details: His6-thioredoxin removed with TEV; label: 5' 6-FAM on strand 1
T4 sequence (looked up): T1 sequence (looked up) with A72R, K92A

Siz2∆CT R78A = molecular target: T5, Siz2∆CT R78A (UniProt Q12216); assay: fluorescence polarization; settings: FP: 20 mM HEPES pH 7.5, 125 mM NaCl, 0.1% Tween-20, 23°C, 50 nM DNA (RPA/SUMO-RPA on ss32: 1 nM DNA, plus 5 mM MgCl2, 1 mM DTT); recombinant protein; residues 1-420; protein details: His6-thioredoxin removed with TEV; label: 5' 6-FAM on strand 1
T5 sequence (looked up): T1 sequence (looked up) with A72R, R78A

Siz2∆CT K92E = molecular target: T6, Siz2∆CT K92E (UniProt Q12216); assay: fluorescence polarization; settings: FP: 20 mM HEPES pH 7.5, 125 mM NaCl, 0.1% Tween-20, 23°C, 50 nM DNA (RPA/SUMO-RPA on ss32: 1 nM DNA, plus 5 mM MgCl2, 1 mM DTT); recombinant protein; residues 1-420; protein details: His6-thioredoxin removed with TEV; label: 5' 6-FAM on strand 1
T6 sequence (looked up): T1 sequence (looked up) with A72R, K92E

Siz2∆CT R72E = molecular target: T7, Siz2∆CT R72E (UniProt Q12216); assay: fluorescence polarization; settings: FP: 20 mM HEPES pH 7.5, 125 mM NaCl, 0.1% Tween-20, 23°C, 50 nM DNA (RPA/SUMO-RPA on ss32: 1 nM DNA, plus 5 mM MgCl2, 1 mM DTT); recombinant protein; residues 1-420; protein details: His6-thioredoxin removed with TEV; label: 5' 6-FAM on strand 1
T7 sequence (looked up): T1 sequence (looked up) with A72E

Siz2∆CT K109A = molecular target: T8, Siz2∆CT K109A (UniProt Q12216); assay: fluorescence polarization; settings: FP: 20 mM HEPES pH 7.5, 125 mM NaCl, 0.1% Tween-20, 23°C, 50 nM DNA (RPA/SUMO-RPA on ss32: 1 nM DNA, plus 5 mM MgCl2, 1 mM DTT); recombinant protein; residues 1-420; protein details: His6-thioredoxin removed with TEV; label: 5' 6-FAM on strand 1
T8 sequence (looked up): T1 sequence (looked up) with A72R, K109A

Siz2∆CT + RPA∆WH = assay: fluorescence polarization; settings: Siz2∆CT titrated into RPA∆WH-DNA, affinity comparable to RPA-DNA; FP: 20 mM HEPES pH 7.5, 125 mM NaCl, 0.1% Tween-20, 23°C, 50 nM DNA (RPA/SUMO-RPA on ss32: 1 nM DNA, plus 5 mM MgCl2, 1 mM DTT); recombinant protein; label: 5' 6-FAM on strand 2 (fw20)
Siz2∆CT = molecular target: T9, Siz2∆CT (UniProt Q12216); assay: fluorescence polarization; settings: FP: 20 mM HEPES pH 7.5, 125 mM NaCl, 0.1% Tween-20, 23°C, 50 nM DNA (RPA/SUMO-RPA on ss32: 1 nM DNA, plus 5 mM MgCl2, 1 mM DTT); recombinant protein; residues 1-420; protein details: His6-thioredoxin removed with TEV; label: 5' 6-FAM on strand 2 (fw20)
T9 sequence (looked up): T1 sequence (looked up) with A72R

[1] = test system: Siz2∆CT + RPA (Rfa1/Rfa2/Rfa3); assay: fluorescence polarization; settings: Siz2∆CT titrated into RPA-DNA; FP: 20 mM HEPES pH 7.5, 125 mM NaCl, 0.1% Tween-20, 23°C, 50 nM DNA (RPA/SUMO-RPA on ss32: 1 nM DNA, plus 5 mM MgCl2, 1 mM DTT); recombinant protein; label: 5' 6-FAM on strand 2 (fw20)
[2] = test system: Siz2 full length + RPA∆WH; assay: EMSA; settings: Siz2 titrated into RPA∆WH-DNA, 5 mM MgCl2; EMSA: same buffer with 5 mM MgCl2 (Fig 8 also 1 mM DTT), 23°C, 6% gel in 0.5x TBE; recombinant protein; label: 5' 6-FAM on strand 2 (fw20)
Siz2 full length = molecular target: T10, Siz2 full length (UniProt Q12216); assay: EMSA; settings: 5 mM MgCl2; EMSA: same buffer with 5 mM MgCl2 (Fig 8 also 1 mM DTT), 23°C, 6% gel in 0.5x TBE; recombinant protein; protein details: His6-Smt3 removed with …; label: 5' 6-FAM on strand 2 (fw20)
T10 sequence (looked up, limits assumed): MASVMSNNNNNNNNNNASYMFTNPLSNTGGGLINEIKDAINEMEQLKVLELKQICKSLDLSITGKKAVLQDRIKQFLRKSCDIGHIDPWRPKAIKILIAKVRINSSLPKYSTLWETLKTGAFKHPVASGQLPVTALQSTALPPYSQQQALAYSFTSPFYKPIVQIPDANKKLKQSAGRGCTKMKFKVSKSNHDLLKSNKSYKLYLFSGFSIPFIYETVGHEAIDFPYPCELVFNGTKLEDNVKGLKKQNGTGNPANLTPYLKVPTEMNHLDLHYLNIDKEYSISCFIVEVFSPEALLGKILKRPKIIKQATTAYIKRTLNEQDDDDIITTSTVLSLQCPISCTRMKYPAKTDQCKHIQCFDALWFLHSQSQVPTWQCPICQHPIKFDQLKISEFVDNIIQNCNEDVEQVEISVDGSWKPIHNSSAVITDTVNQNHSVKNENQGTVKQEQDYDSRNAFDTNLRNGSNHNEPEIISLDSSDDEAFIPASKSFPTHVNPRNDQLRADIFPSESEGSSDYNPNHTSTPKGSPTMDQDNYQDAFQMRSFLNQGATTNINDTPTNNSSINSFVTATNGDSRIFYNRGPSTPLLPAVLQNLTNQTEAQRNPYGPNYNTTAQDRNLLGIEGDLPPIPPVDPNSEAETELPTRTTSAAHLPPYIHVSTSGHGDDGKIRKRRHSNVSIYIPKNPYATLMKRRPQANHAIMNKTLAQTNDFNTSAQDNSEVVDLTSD

Measured: binding result

GCTGTAGCTAGTTTTGCTTC (double strand) [6-FAM-ds20]
binds: Siz2∆CT R72A | Siz2∆CT K109E | Siz2∆CT R78E | Siz2∆CT K92A | Siz2∆CT R78A | Siz2∆CT K92E | Siz2∆CT R72E | Siz2∆CT K109A

GAAGCAAAACTAGCTACAGCTTTTTTTTTTTTTTTTTTTTTTTTTTTTTTTT / GCTGTAGCTAGTTTTGCTTC [6-FAM-ds20ss32]
binds: Siz2∆CT + RPA∆WH | Siz2∆CT | [1] | [2] | Siz2 full length
